In patent US20150250786A1, “PYRIMIDINE HYDROXY AMIDE COMPOUNDS AS PROTEIN DEACETYLASE INHIBITORS AND METHODS OF USE THEREOF” (THE TRUSTEES OF THE UNIVERSITY OF PENNSYLVANIA, priority 2012, published 2015):
At least one compound was matched to its structure with a doubt left.

Tested on: NIH Swiss mice; C57BL/6J HDAC6 WT and KO mice
Experiment: Tail suspension test (TST)
Assay type: in vivo, mouse

For CN(C)CCCC1(c2ccc(F)cc2)OCc2cc(C#N)ccc21 (stereo not drawn) [citalopram, reference compound], the “time immobile in TST” value (0.5 mg/kg) was “not”, the “time immobile in TST” value (2 mg/kg) was “significant decreases” and the “time immobile in TST” value (20 mg/kg) was “significant decreases”. For the same molecule, the “activity in TST two hours after the injection” value (20 mg/kg citalopram, 50 mg/kg compound 73) was “still had significant activity”, the “anti-immobility effect in HDAC6 KO mice” value (C57BL/6J background, versus WT littermates) was “significantly greater” and the “anti-immobility effects in C57BL/6J WT mice” value (mouse, in vivo) was “still significant”.
